According to doi:10.1101/2024.03.28.587122:
These are yes or no findings as the source states them, for the method shown. In cells and extracts the contact can be indirect. These calls come from enrichment with a bait or labelling near it, and not all partners need be listed.

Amino acid sequences for entries named in this document (tags omitted). A change or cut given only in a name is not applied to a line headed by its entry.
UniProt Q9LMA8: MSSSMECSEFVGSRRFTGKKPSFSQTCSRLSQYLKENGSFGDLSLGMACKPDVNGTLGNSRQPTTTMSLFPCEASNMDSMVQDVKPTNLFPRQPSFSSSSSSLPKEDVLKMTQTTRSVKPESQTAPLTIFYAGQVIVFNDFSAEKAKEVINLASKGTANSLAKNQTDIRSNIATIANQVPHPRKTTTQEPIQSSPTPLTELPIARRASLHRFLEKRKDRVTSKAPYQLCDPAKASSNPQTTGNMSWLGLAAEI

B1: ASK4 (protein, UniProt Q9LNT9 1-163)
chain: MAETKKMIILKSSDGESFEIEEAVAVKSQTIKHMIEDDCADNGIPLPNVTGAILAKVIEYCKKHVEAAAEAGGDKDFYGSAENDELKNWDSEFVKVDQPTLFDLILAANYLNIGGLLDLTCKAVADQMRGKTPEQMRAHFNIKNDYTPEEEAEVRNENKWAFE
B2: CUL4 (protein, UniProt Q8LGH4 1-792)
chain: MSLPTKRSTFSAASASDDSSYSSPPMKKAKNDLHHSPQHPNTADKVVGFHMEEDPTPAAANLSRKKATLPQPTKKFVIKLNKAKPTLPTNFEENTWEKLQSAIRAIFLKKKISFDLESLYQAVDNLCLHKLDGKLYDQIEKECEEHISAALQSLVGQNTDLTVFLSRVEKCWQDFCDQMLMIRSIALTLDRKYVIQNPNVRSLWEMGLQLFRKHLSLAPEVEQRTVKGLLSMIEKERLAEAVNRTLLSHLLKMFTALGIYMESFEKPFLEGTSEFYAAEGMKYMQQSDVPEYLKHVEGRLHEENERCILYIDAVTRKPLITTVERQLLERHILVVLEKGFTTLMDGRRTEDLQRMQTLFSRVNALESLRQALSSYVRKTGQKIVMDEEKDKDMVQSLLDFKASLDIIWEESFYKNESFGNTIKDSFEHLINLRQNRPAELIAKFLDEKLRAGNKGTSEEELESVLEKVLVLFRFIQGKDVFEAFYKKDLAKRLLLGKSASIDAEKSMISKLKTECGSQFTNKLEGMFKDIELSKEINESFKQSSQARTKLPSGIEMSVHVLTTGYWPTYPPMDVKLPHELNVYQDIFKEFYLSKYSGRRLMWQNSLGHCVLKADFSKGKKELAVSLFQAVVLMLFNDAMKLSFEDIKDSTSIEDKELRRTLQSLACGKVRVLQKNPKGRDVEDGDEFEFNDEFAAPLYRIKVNAIQMKETVEENTSTTERVFQDRQYQIDAAIVRIMKTRKVLSHTLLITELFQQLKFPIKPADLKKRIESLIDREYLEREKSNPQIYNYLA

Molecular target: Venus-JAZ1 (in 35S:Venus-JAZ1 transgenic Arabidopsis seedlings) (Arabidopsis thaliana) (UniProt Q9LMA8)
Assay: affinity purification with mass spectrometry

| Binder | binding |
| --- | --- |
| B1 | binds |
| B2 | binds |
